# Test results from the supplement of paper PMC10849652.
# By UniProt entry, the sequences of proteins in these tests, tags left out. Where a name states a change or a piece, a line headed by the entry shows the natural chain unless it says otherwise.
# UniProt Q04726: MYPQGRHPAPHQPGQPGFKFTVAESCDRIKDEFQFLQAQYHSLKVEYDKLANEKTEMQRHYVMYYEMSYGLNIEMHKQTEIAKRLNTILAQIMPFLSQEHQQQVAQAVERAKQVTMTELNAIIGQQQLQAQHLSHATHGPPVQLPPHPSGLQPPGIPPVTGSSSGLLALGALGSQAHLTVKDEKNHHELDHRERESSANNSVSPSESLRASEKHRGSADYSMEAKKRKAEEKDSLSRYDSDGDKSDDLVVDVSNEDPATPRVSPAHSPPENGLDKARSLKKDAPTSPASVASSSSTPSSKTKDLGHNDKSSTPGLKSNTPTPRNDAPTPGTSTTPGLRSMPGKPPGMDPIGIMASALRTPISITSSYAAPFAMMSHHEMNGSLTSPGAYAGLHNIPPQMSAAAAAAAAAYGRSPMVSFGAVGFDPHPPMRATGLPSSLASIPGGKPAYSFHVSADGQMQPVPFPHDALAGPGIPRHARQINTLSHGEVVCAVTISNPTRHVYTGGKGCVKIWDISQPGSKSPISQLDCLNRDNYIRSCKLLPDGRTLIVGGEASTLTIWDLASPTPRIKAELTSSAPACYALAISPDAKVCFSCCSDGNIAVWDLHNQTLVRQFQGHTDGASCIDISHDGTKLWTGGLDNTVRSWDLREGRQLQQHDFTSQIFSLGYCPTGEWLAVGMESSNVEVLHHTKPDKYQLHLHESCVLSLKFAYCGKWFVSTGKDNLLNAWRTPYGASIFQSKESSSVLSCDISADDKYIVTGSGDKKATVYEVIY
# UniProt Q9P2C4: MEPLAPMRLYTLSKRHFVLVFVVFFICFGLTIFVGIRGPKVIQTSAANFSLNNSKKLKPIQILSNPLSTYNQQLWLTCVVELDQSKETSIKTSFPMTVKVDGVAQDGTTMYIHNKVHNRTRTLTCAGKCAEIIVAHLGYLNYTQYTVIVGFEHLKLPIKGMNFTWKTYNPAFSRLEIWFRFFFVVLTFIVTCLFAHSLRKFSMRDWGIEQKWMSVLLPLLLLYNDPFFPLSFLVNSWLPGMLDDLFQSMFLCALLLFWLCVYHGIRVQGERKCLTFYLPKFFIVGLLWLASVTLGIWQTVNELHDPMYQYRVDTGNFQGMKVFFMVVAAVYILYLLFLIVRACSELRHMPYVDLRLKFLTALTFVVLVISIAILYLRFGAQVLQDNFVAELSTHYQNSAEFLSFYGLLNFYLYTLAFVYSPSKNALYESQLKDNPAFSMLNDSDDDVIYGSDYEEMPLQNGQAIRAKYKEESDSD
# UniProt Q8N131: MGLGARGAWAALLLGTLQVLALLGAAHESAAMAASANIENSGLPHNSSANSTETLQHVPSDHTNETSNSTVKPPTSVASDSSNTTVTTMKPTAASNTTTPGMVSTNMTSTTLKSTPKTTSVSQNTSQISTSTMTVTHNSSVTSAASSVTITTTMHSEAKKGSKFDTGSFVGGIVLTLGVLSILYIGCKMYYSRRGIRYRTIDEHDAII
# UniProt Q86UE8, whole entry, looked up: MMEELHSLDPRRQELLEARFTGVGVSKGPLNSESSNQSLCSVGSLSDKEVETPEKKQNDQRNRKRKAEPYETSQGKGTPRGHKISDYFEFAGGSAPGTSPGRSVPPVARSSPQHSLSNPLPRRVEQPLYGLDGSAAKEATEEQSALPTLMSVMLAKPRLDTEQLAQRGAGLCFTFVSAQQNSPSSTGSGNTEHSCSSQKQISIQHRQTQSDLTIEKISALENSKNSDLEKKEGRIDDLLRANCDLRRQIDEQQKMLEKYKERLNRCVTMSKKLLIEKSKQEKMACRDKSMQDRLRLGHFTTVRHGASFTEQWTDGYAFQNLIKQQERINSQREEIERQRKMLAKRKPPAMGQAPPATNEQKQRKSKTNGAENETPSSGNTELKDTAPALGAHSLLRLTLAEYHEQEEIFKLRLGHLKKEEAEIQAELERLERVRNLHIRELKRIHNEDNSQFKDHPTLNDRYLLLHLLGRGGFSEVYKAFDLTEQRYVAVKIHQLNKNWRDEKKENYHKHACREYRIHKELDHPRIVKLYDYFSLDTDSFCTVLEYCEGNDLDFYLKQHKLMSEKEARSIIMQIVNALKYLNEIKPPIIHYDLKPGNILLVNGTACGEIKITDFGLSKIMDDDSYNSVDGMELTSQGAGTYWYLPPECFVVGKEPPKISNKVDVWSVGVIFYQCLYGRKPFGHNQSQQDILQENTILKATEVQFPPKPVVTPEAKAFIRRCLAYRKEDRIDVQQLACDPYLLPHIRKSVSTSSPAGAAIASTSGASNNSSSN
# UniProt Q96RS0: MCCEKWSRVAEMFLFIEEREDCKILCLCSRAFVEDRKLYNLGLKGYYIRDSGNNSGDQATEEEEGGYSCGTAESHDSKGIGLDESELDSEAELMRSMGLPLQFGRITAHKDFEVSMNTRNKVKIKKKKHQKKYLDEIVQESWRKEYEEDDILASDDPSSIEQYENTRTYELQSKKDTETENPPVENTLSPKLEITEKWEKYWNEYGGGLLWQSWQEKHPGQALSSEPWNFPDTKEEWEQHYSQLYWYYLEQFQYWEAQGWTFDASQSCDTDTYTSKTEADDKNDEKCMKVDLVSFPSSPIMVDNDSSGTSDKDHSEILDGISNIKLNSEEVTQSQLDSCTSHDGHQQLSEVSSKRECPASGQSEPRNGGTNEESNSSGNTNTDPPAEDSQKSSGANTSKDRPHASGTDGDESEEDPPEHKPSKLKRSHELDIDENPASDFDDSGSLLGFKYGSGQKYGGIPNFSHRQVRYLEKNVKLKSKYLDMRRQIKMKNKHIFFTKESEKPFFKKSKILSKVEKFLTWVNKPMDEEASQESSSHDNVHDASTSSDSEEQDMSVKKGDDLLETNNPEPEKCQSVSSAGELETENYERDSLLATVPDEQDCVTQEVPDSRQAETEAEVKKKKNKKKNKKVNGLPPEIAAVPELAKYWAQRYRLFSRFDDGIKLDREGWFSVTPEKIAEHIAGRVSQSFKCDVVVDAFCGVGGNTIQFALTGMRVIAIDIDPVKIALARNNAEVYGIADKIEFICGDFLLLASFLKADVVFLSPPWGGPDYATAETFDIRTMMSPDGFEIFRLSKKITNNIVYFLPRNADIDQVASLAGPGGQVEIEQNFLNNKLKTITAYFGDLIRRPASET
# UniProt P62072: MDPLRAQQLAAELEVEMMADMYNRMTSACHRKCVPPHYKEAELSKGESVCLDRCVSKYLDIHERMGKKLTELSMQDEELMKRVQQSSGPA
# UniProt Q86W42: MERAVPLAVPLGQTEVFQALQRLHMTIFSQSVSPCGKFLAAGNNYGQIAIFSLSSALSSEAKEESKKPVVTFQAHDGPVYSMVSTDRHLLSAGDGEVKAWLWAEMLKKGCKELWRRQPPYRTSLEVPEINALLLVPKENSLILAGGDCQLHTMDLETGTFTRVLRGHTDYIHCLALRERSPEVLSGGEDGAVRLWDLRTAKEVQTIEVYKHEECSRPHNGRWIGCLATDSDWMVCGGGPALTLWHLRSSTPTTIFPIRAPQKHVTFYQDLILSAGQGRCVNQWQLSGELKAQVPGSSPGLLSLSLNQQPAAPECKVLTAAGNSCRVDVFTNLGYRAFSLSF
# UniProt O43615: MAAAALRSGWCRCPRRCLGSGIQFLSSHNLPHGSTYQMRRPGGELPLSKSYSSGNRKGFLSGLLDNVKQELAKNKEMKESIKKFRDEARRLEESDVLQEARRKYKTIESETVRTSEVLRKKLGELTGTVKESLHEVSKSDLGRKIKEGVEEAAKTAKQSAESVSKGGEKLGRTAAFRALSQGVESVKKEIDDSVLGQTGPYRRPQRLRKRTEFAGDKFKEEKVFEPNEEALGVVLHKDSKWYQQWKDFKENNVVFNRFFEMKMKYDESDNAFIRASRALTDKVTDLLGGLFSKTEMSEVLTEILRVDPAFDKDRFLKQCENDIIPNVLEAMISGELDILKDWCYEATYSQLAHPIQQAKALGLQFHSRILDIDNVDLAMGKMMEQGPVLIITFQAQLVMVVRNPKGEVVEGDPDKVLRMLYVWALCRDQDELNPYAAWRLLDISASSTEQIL
# UniProt O75663: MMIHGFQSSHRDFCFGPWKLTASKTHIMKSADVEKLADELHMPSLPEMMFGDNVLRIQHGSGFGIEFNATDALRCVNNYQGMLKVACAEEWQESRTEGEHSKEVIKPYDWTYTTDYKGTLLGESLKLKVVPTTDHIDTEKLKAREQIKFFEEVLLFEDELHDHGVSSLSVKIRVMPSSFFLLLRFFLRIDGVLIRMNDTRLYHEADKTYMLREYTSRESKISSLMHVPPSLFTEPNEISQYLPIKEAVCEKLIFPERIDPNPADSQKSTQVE
# UniProt Q8IYQ7: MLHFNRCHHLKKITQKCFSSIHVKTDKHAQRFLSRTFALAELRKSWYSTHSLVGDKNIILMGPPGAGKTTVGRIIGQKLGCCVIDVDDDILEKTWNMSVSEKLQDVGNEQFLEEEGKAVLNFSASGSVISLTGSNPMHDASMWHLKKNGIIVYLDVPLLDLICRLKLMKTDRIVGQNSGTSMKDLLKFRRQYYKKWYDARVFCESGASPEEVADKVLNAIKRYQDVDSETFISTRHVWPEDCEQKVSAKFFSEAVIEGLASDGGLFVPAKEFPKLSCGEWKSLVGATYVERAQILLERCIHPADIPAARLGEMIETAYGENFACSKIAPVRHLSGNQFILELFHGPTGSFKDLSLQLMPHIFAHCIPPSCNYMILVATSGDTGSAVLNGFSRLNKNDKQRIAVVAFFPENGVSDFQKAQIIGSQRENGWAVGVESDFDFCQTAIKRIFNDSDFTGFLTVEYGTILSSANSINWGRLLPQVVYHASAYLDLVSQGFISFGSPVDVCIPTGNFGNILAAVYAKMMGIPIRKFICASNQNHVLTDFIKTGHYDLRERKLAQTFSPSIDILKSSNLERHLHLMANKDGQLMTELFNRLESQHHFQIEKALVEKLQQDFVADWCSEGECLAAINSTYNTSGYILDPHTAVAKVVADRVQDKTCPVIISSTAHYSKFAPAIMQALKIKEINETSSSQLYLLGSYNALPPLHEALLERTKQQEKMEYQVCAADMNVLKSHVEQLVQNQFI
# UniProt Q8IUX1: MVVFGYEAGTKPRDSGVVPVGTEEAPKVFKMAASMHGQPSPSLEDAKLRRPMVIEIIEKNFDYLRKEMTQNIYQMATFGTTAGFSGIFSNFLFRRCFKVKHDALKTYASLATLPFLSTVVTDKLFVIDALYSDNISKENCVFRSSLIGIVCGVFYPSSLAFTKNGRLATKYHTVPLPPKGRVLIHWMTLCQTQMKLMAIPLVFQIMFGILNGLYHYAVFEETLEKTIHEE
# UniProt Q9BSF4: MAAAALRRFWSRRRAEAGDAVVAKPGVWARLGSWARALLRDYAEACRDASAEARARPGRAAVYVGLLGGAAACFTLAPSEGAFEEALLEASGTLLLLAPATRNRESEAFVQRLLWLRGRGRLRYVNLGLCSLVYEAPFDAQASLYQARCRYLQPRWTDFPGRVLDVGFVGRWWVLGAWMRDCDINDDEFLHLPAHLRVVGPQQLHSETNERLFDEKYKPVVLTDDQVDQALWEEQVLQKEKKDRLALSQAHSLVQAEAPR
# UniProt Q96EK4, whole entry, looked up: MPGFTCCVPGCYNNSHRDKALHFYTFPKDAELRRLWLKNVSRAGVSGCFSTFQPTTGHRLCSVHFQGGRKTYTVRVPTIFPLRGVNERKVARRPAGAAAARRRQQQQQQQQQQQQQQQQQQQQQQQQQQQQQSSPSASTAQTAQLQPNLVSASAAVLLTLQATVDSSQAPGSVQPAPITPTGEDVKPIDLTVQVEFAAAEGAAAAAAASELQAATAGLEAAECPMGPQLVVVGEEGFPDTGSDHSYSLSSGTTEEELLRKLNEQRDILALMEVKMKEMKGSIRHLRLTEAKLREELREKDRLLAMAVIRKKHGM
# UniProt Q12893: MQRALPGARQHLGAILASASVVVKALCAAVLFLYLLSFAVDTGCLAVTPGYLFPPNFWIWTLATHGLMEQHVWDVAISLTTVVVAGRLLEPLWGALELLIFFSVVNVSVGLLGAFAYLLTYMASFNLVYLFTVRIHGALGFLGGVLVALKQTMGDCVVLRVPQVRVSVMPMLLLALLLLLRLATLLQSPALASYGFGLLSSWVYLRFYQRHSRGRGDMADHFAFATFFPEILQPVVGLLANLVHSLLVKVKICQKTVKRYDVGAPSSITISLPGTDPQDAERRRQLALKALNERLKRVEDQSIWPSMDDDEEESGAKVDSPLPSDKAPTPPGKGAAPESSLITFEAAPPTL
# UniProt Q96B77: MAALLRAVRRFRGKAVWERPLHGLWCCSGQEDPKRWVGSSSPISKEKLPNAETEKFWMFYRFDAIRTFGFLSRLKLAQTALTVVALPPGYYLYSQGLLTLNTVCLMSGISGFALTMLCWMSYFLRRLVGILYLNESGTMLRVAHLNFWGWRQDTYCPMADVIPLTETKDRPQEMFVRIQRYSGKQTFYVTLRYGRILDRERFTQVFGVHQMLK
# UniProt Q96CP7: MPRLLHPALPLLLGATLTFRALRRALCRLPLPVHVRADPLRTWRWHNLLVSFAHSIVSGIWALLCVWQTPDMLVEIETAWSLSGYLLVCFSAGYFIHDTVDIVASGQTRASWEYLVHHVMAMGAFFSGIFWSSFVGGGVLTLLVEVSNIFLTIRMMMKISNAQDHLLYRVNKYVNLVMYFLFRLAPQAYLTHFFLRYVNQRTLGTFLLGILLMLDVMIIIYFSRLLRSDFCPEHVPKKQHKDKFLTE
# The other results are listed elsewhere or left out.
# Experiments:
# Assay in all cases: log2 fold change, soluble protein after heating vs DMSO (PISA); higher = thermal stabilisation; K562 lysate, 10 uM; active = over 0.2 and 3.5 SD of the protein, either way, in both replicates (recomputed)
# vemurafenib = compound: CCCS(=O)(=O)Nc1ccc(F)c(C(=O)c2c[nH]c3ncc(-c4ccc(Cl)cc4)cc23)c1F [vemurafenib]
# Procedure, shortened: (§1)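 The values are log-two fold changes in thermal stability compared with solvent controls and come from duplicates. They were obtained by TMTpro 16plex LC-MS/MS, with channel sums equalised, on the supernatant after 21,000xg for 90 min. That supernatant came from crude K562 extract at 1 mg/mL protein treated with 10 μM compound for 30 min, heated for 3 min across 48°C-58°C, pooled and brought to 0.5% NP-40 at 4°C.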
# [1] = compound: CCCS(=O)(=O)Nc1ccc(F)c(C(=O)c2c[nH]c3ncc(Cl)cc23)c1F
# Procedure, shortened: as §1
# barasertib = compound: CCN(CCCOc1ccc2c(Nc3cc(CC(=O)Nc4cccc(F)c4)[nH]n3)ncnc2c1)CCOP(=O)(O)O [barasertib]
# Procedure, shortened: as §1
# [2] = compound: CC[C@@H]1C(=O)N(C)c2cnc(Nc3ccc(C(=O)NC4CCN(C)CC4)cc3OC)nc2N1C1CCCC1
# Procedure, shortened: as §1
# volasertib = compound: CC[C@@H]1C(=O)N(C)c2cnc(Nc3ccc(C(=O)N[C@H]4CC[C@H](N5CCN(CC6CC6)CC5)CC4)cc3OC)nc2N1C(C)C [volasertib]
# Procedure, shortened: as §1
# [3] = compound: CCn1c(C(=O)N(C2CC2)C2CC2)cc2c3c(ncn3C)c(Nc3cc(C)n(C)n3)nc21
# Procedure, shortened: as §1
# [4] = compound: CCn1cc(-c2ccnc3[nH]c(-c4cccc(CN(C)C)c4)cc23)c(-c2ccc(NC(=O)N(C)C)cc2)n1
# Procedure, shortened: as §1
# [5] = compound: CN1CCC(CNc2ccc3ncc(-c4cccc(OC(F)(F)F)c4)n3n2)CC1
# Procedure, shortened: as §1
# saracatinib = compound: CN1CCN(CCOc2cc(OC3CCOCC3)c3c(Nc4c(Cl)ccc5c4OCO5)ncnc3c2)CC1 [saracatinib]
# Procedure, shortened: as §1
# sotrastaurin = compound: CN1CCN(c2nc(C3=C(c4c[nH]c5ccccc45)C(=O)NC3=O)c3ccccc3n2)CC1 [sotrastaurin]
# Procedure, shortened: as §1
Target,log2 fold change (vemurafenib),log2 fold change [1],log2 fold change (barasertib),log2 fold change [2],log2 fold change (volasertib),log2 fold change [3],log2 fold change [4],log2 fold change [5],log2 fold change (saracatinib),log2 fold change (sotrastaurin)
TJP1 isoform 2 (UniProt Q07157),inactive: 0.023,inactive: 0,inactive: -0.003,inactive: 0.064,inactive: -0.01,inactive: -0.045,inactive: -0.046,inactive: 0.057,inactive: 0.014,inactive: 0.014
THOC2 (UniProt Q8NI27),inactive: -0.015,inactive: 0.004,inactive: 0.004,inactive: -0.015,inactive: -0.028,inactive: 0.005,inactive: -0.039,inactive: -0.018,inactive: 0.029,inactive: 0.019
TLE3 isoform 4 (UniProt Q04726),inactive: 0.009,inactive: 0.01,inactive: 0.005,inactive: 0.065,inactive: 0.021,inactive: 0.027,inactive: -0.001,inactive: 0.01,inactive: 0.017,inactive: -0.017
TMEM181 (UniProt Q9P2C4),inactive: 0.056,inactive: 0.015,inactive: 0.037,inactive: 0.091,inactive: 0.036,inactive: 0.025,inactive: 0.124,inactive: -0.004,inactive: -0.017,inactive: 0.052
TMEM123 (UniProt Q8N131),inactive: -0.144,inactive: 0.022,inactive: -0.058,inactive: -0.056,inactive: 0.013,inactive: 0.078,inactive: 0.06,inactive: 0.021,inactive: 0.002,
TLK2 isoform 2 (UniProt Q86UE8),inactive: -0.015,inactive: -0.011,inactive: 0.017,inactive: -0.068,inactive: -0.03,inactive: -0.009,inactive: -0.171,inactive: 0.085,inactive: 0.021,active: 0.26
TGS1 (UniProt Q96RS0),inactive: -0.011,inactive: 0.029,inactive: 0.015,inactive: -0.013,inactive: -0.02,inactive: 0.002,inactive: -0.097,inactive: 0.05,inactive: 0,inactive: 0.028
TIMM10 (UniProt P62072),inactive: -0.092,inactive: 0.018,inactive: 0.01,inactive: -0.216,inactive: -0.007,inactive: 0.013,inactive: -0.09,inactive: 0.087,inactive: 0.008,inactive: 0.004
TLE4 isoform 3 (UniProt Q04727),inactive: -0.004,inactive: -0.025,inactive: 0.005,inactive: 0.012,inactive: -0.014,inactive: 0.001,inactive: -0.071,inactive: 0.05,inactive: 0.002,inactive: 0.034
THOC6 (UniProt Q86W42),inactive: 0.023,inactive: 0.014,inactive: 0.098,inactive: 0.03,inactive: -0.047,inactive: -0.021,inactive: -0.057,inactive: 0.005,inactive: -0.009,inactive: -0.025
TIMM44 (UniProt O43615),inactive: -0.035,inactive: -0.017,inactive: 0.07,inactive: -0.006,inactive: -0.034,inactive: 0.022,inactive: -0.02,inactive: -0.065,inactive: 0.012,inactive: -0.026
TLR9 isoform 4 (UniProt Q9NR96),inactive: -0.043,inactive: 0.006,inactive: 0.053,inactive: 0.189,inactive: 0.011,inactive: 0.017,inactive: 0.209,inactive: 0.086,inactive: -0.014,inactive: -0.046
TMCO6 isoform 2 (UniProt Q96DC7),inactive: -0.013,inactive: 0.055,inactive: 0.019,inactive: 0.045,inactive: -0.031,inactive: -0.017,inactive: 0.41,inactive: -0.181,inactive: 0.011,inactive: -0.066
TKFC (UniProt Q3LXA3),inactive: -0.025,inactive: -0.007,inactive: -0.026,inactive: -0.028,inactive: 0.023,inactive: 0.006,inactive: -0.054,inactive: 0.044,inactive: -0.003,inactive: -0.043
THOC3 (UniProt Q96J01),inactive: 0.003,inactive: 0.025,inactive: 0.013,inactive: 0.01,inactive: -0.031,inactive: 0.048,inactive: -0.029,inactive: 0.011,inactive: -0.027,inactive: -0.014
TIPRL (UniProt O75663),inactive: -0.02,inactive: 0.021,inactive: 0.017,inactive: -0.036,inactive: -0.014,inactive: 0.014,inactive: -0.047,inactive: 0.024,inactive: 0.002,inactive: -0.023
THRAP3 (UniProt Q9Y2W1),inactive: 0.028,inactive: 0.011,inactive: 0.02,inactive: 0.051,inactive: 0.005,inactive: -0.021,inactive: -0.134,inactive: 0.072,inactive: 0.024,inactive: 0.006
THNSL1 (UniProt Q8IYQ7),inactive: 0.047,inactive: -0.001,inactive: 0.03,inactive: 0.016,inactive: -0.037,inactive: 0.036,inactive: 0.012,inactive: -0.024,inactive: -0.007,inactive: -0.01
TMEM126B (UniProt Q8IUX1),inactive: -0.009,inactive: 0.061,inactive: 0.047,inactive: -0.003,inactive: 0.003,inactive: 0.006,inactive: -0.067,inactive: 0,inactive: -0.041,inactive: 0.045
TIMM50 isoform 2 (UniProt Q3ZCQ8),inactive: -0.005,inactive: 0.002,inactive: -0.002,inactive: 0.015,inactive: -0.014,inactive: -0.003,inactive: -0.018,inactive: -0.001,inactive: -0.004,inactive: -0.003
THUMPD1 (UniProt Q9NXG2),inactive: -0.029,inactive: -0.016,inactive: -0.026,inactive: -0.007,inactive: 0.023,inactive: -0.022,inactive: -0.061,inactive: 0.046,inactive: -0.022,inactive: 0.008
TIMM29 (UniProt Q9BSF4),inactive: 0.082,inactive: 0.049,inactive: 0.015,inactive: 0.014,inactive: 0.036,inactive: -0.036,inactive: -0.002,inactive: -0.072,inactive: 0.014,inactive: 0.065
TLN2 (UniProt Q9Y4G6),inactive: -0.02,inactive: -0.008,inactive: 0.121,inactive: 0.022,inactive: 0.008,inactive: 0.001,inactive: 0.259,inactive: -0.025,inactive: -0.005,inactive: 0
THAP11 (UniProt Q96EK4),inactive: 0.029,inactive: 0.048,inactive: 0.009,inactive: 0.025,inactive: 0.081,inactive: -0.118,inactive: -0.041,inactive: 0.063,inactive: -0.033,
TMEM115 (UniProt Q12893),inactive: -0.059,inactive: 0.064,inactive: 0.008,inactive: -0.017,inactive: 0.014,inactive: 0.009,inactive: -0.039,inactive: 0.033,inactive: 0.033,inactive: -0.063
TMEM186 (UniProt Q96B77),inactive: 0.035,inactive: 0.018,inactive: 0.062,inactive: 0.018,inactive: 0.029,inactive: -0.037,inactive: 0.25,inactive: -0.114,inactive: -0.047,inactive: -0.04
TLCD1 (UniProt Q96CP7),inactive: 0.042,inactive: -0.073,inactive: 0,inactive: -0.087,inactive: 0.086,inactive: 0.17,inactive: -0.103,inactive: -0.011,inactive: -0.013,inactive: 0.036

# An excerpt of these results, with tabs.
Target	log2 fold change (vemurafenib)	log2 fold change [1]	log2 fold change (barasertib)	log2 fold change [2]	log2 fold change (volasertib)	log2 fold change [3]	log2 fold change [4]	log2 fold change [5]	log2 fold change (saracatinib)	log2 fold change (sotrastaurin)
THRAP3 (UniProt Q9Y2W1)	inactive: 0.028	inactive: 0.011	inactive: 0.02	inactive: 0.051	inactive: 0.005	inactive: -0.021	inactive: -0.134	inactive: 0.072	inactive: 0.024	inactive: 0.006
THNSL1 (UniProt Q8IYQ7)	inactive: 0.047	inactive: -0.001	inactive: 0.03	inactive: 0.016	inactive: -0.037	inactive: 0.036	inactive: 0.012	inactive: -0.024	inactive: -0.007	inactive: -0.01
